Data reported in PMC8179927.
Positions count from the first letter of the chain named. These are yes or no findings as the source states them, for the method shown. In cells and extracts the contact can be indirect. Some entries that bind do so weakly or less than the wild type.

Legend:
Assay in all cases: co-IP; whole cell lysates (2 mg) of CL1-0 or H1355 cells with forced expression of PGK1 (wild type or mutant) or vector control, incubated overnight in IP buffer with protein A/G magnetic beads and antibodies against PGK1 or HTATSF1; western blot of HTATSF1 and PGK1; the legends call it a pull-down assay using beads
[1] = biological target: T1, Phosphoglycerate kinase 1 (PGK1), wild type, exogenous (human) (UniProt P00558)
T1 sequence: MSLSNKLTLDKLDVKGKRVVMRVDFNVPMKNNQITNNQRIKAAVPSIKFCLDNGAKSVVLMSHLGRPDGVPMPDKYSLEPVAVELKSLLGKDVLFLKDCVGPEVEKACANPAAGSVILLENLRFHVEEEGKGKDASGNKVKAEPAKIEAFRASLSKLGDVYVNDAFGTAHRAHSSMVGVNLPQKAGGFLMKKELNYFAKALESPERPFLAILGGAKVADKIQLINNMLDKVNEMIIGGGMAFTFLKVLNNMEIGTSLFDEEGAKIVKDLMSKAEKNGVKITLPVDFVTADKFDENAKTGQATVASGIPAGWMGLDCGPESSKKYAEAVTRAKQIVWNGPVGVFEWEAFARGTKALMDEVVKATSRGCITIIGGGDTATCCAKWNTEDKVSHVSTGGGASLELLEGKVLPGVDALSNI

[2] = biological target: T2, PGK1 I253T (human) (UniProt P00558)
T2 sequence: T1 sequence with I253T

[3] = biological target: T3, PGK1 V266M (human) (UniProt P00558)
T3 sequence: T1 sequence with V266M

[4] = biological target: T4, PGK1 K191del (human) (UniProt P00558)
T4 sequence: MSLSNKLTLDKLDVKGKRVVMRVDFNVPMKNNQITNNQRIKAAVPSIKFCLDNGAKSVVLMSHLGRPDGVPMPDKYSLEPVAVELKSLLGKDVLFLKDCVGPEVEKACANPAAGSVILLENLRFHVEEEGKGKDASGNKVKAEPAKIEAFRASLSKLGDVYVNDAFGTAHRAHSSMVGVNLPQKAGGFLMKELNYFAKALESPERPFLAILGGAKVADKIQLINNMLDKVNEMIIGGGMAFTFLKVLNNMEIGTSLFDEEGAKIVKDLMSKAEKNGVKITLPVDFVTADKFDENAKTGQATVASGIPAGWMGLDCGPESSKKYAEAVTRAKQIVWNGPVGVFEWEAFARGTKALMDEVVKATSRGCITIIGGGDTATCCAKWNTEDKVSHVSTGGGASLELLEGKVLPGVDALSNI

[5] = biological target: T5, PGK1 D285V (human) (UniProt P00558)
T5 sequence: T1 sequence with D285V

Measured: binding

B1: HIV-1 Tat Specific Factor 1 (HTATSF1) (protein, UniProt O43719 1-755)
chain: MSGTNLDGNDEFDEQLRMQELYGDGKDGDTQTDAGGEPDSLGQQPTDTPYEWDLDKKAWFPKITEDFIATYQANYGFSNDGASSSTANVEDVHARTAEEPPQEKAPEPTDARKKGEKRKAESGWFHVEEDRNTNVYVSGLPPDITVDEFIQLMSKFGIIMRDPQTEEFKVKLYKDNQGNLKGDGLCCYLKRESVELALKLLDEDEIRGYKLHVEVAKFQLKGEYDASKKKKKCKDYKKKLSMQQKQLDWRPERRAGPSRMRHERVVIIKNMFHPMDFEDDPLVLNEIREDLRVECSKFGQIRKLLLFDRHPDGVASVSFRDPEEADYCIQTLDGRWFGGRQITAQAWDGTTDYQVEETSREREERLRGWEAFLNAPEANRGLRRSDSVSASERAGPSRARHFSEHPSTSKMNAQETATGMAFEEPIDEKKFEKTEDGGEFEEGASENNAKESSPEKEAEEGCPEKESEEGCPKRGFEGSCSQKESEEGNPVRGSEEDSPKKESKKKTLKNDCEENGLAKESEDDLNKESEEEVGPTKESEEDDSEKESDEDCSEKQSEDGSEREFEENGLEKDLDEEGSEKELHENVLDKELEENDSENSEFEDDGSEKVLDEEGSEREFDEDSDEKEEEEDTYEKVFDDESDEKEDEEYADEKGLEAADKKAEEGDADEKLFEESDDKEDEDADGKEVEDADEKLFEDDDSNEKLFDEEEDSSEKLFDDSDERGTLGGFGSVEEGPLSTGSSFILSSDDDDDDI
binds: all assays above
